Measurements from PubChem BioAssay AID1347426 (Functional Genomics Laboratory (NCATS/FGL), 2020).
About 1,400 (4.5%) of roughly 31,000 sequences were called active.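 The calls were made as follows: active = median seed-adjusted z-score above 1 or below -1; inactive = the rest.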 Some of the results follow.

assay: Novel Modifiers of Survival Motor Neuron (SMN) Protein: Gene Identification via Genome-wide siRNA Screen; conditions: HEK293T SMN2-luciferase reporter, siRNA knockdown, 72 h; actives lie on both sides;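 also: luminescence tracks full-length SMN protein made from the SMN2 reporter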
Summary of the method: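 Luciferase signal, proportional to full-length SMN made from an SMN2 cDNA reporter in stable HEK293T cells, was read 72 h after siRNA reverse transfection. Values were expressed as MAD scores after non-targeting-control normalization and log10 conversion; seed analysis flagged off-targets.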

| Sequence | median seed-adjusted z-score |
| --- | --- |
| GCAUGAUAAAGCUCAAAUATT against PHF6 | inactive: -0.268 |
| GGUUUUUGAUCUUUGCGUATT against NR2C1 | inactive: 0.386 |
| GUUCUGCGCUAUACCAAUATT against PEPD | inactive: -0.00401 |
| ACACUUUGGGCAUCGAAUATT against GNAO1 | inactive: 0.233 |
| CAGUCUUGGUGGACCUAGATT against TUBB1 | inactive: -0.289 |
| GGCACGAUACCUAAAAGAATT against NEFL | inactive: 0.305 |
| GAACAGAUCCGGAAGAAGATT against NR1H2 | inactive: 0.069 |
| GGAAAGAAAGUGUAUGUCATT against SAG | inactive: 0 |
| CGCAUACUCUCGCCCUGUATT against ZNHIT2 | inactive: -0.339 |
| AGUGCGCCCUGAUAUGACATT against RBCK1 | inactive: 0.479 |
| GCCUCCGAGUUCUACGAGATT against GPSM1 | inactive: -0.275 |
| GGACUAUACUGAGAGCCUATT against USP22 | inactive: 0 |
| GUUUGAGGCUGAUAAAACATT against EDA2R | inactive: 0.424 |
| GCUUCAGAGUUCUCUAAAATT against BTF3L4 | inactive: 0.143 |
| GGAUGUUUCCUACCUAUAUTT against FOLR1 | active: -1.31 |
| UCCAAUCCCUCACCACUCATT against LIMS2 | inactive: 0 |
| CAGUCUAACUCCUAUAUCATT against KRTAP2-2 | inactive: -0.212 |
| ACAUUGAUACGUCCAUGUATT against SERTAD2 | inactive: 0.43 |
| GCUGGUUUCUGAUCGAUAUTT against TDRD5 | inactive: -0.0961 |
| CGACGACAGCUGAAGCAGATT against ADORA2A | inactive: 0 |
| GUAACUUCGUCAAGUCUAATT against GK2 | inactive: 0 |
| CGGCGACAGUAGGAGGAAATT against KCNK13 | inactive: -0.0924 |

Individual results from above.
Entry for GCUGGUUUCUGAUCGAUAUTT against TDRD5 under median seed-adjusted z-score: inactive: -0.0961
Entry for GCCUCCGAGUUCUACGAGATT against GPSM1 under median seed-adjusted z-score: inactive: -0.275
Entry for ACAUUGAUACGUCCAUGUATT against SERTAD2 under median seed-adjusted z-score: inactive: 0.43
Entry for CGGCGACAGUAGGAGGAAATT against KCNK13 under median seed-adjusted z-score: inactive: -0.0924

Next entries follow:

| Sequence | median seed-adjusted z-score |
| --- | --- |
| GCUGGUUGCUUGUACAACATT against LRP1 | inactive: -0.781 |
| GGCUUGGAUUCAGAUCUCATT against SERPINF1 | inactive: -0.145 |
| GGAGAAUGGAUACAUCAAUTT against RGL2 | inactive: 0.174 |
| GUACGACCGUAUUCUCCGATT against WNT1 | inactive: 0 |
| GCAGUGACCUUCAAAGUGATT against PTPRN2 | inactive: -0.104 |
| GAGACGAGCUUUAAUGACATT against SH3BP4 | inactive: -0.0622 |
| CUUUGAUAAUGGAGCGAGATT against PILRA | inactive: 0.0834 |
| ACACGGAGGAUGAAGCUAATT against CYC1 | inactive: -0.47 |
| AGAUGAAGUUGGGAAGGGUTT against LTBR | inactive: 0 |
| UCAGCUCCAUUAAUAGAAUTT against PAX8 | inactive: 0 |
| GUGCUCGAAUGAUAACUAUTT against RAB2A | inactive: -0.038 |
| GGUUGCCCAUCUUACUCUATT against ZNF470 | active: -1.26 |
| CAGCAACCAGAGGAGUAUATT against TCF20 | inactive: 0.392 |
| ACAAGUUCAUCACACGCUATT against STK25 | inactive: -0.0703 |
| GCCUAGACCUCUUCGCUUUTT against PASK | inactive: 0 |
| GAAGCAUCGGGAAAGCAAATT against ZNF684 | inactive: 0.189 |
| CUGCAAGACUUGGAGCUAATT against HDLBP | active: -1.18 |
| UCAAAGUGUUCGACACUGATT against MYLC2PL | inactive: -0.7 |
| GGACAAGACUCUCAAGAUUTT against MGLL | inactive: 0.288 |
| GGUCUAGGGAGGUUGUUCATT against TUBG2 | inactive: 0 |
| CCAUUGGAGUGGACUUCGATT against RAB34 | inactive: 0.342 |
| GCUCAGCUCUACCUGCAUATT against CYP4A22 | inactive: -0.479 |

| Sequence | median seed-adjusted z-score |
| --- | --- |
| AAAAACUCGUAUUUCUAAUTT against ZNF701 | inactive: -0.0161 |
| CUCAAGAUCUGGUUAGUCUTT against DDR1 | inactive: -0.166 |
| UGACUUUGCUCAUACCACATT against IHPK3 | inactive: -0.173 |
| GCAAGACCUGGUCAGUAUATT against NOX4 | inactive: -0.246 |
| GCCUUUGGUUAACACCUAUTT against MYBPC1 | inactive: 0.295 |
| GCAUUGUACUUGCCUCUUUTT against KCNS1 | inactive: -0.167 |
| GGAGUCAACUCACCACCAUTT against SLC17A4 | inactive: 0.262 |
| GGACAACAACGACCACCGATT against PPP1R3D | inactive: 0 |
| GGAGAGGAAUCAUCUUGGATT against ZNF557 | inactive: -0.197 |
| GCACAUCAACAUCAAGCUATT against LRRK1 | inactive: 0.257 |
| GGACUUCAAUGACAGAAGATT against KHSRP | inactive: -0.856 |
| CCCUACCAACAUUAAGUAUTT against CLDN7 | inactive: 0.0208 |
| CCCUGGUAGUCAAAAACGATT against PHKB | inactive: -0.142 |
| GCAGAUCAGCAAAUACUGUTT against IPPK | inactive: 0.389 |
| UGCCUUAUCUGGAAGCAAATT against ERMAP | inactive: -0.276 |
| GCACUGUAGUCAGAGAUGATT against KCNMB3 | inactive: 0.513 |
| GCAAGACAACCAUUCUGUATT against ARF4 | inactive: 0.346 |
| GGAUACCUACCACAAGGUUTT against NPHS2 | inactive: -0.857 |
| GCAAUAUUUCGAGCAGUUUTT against MSI2 | inactive: 0.582 |
| GGAUAAUAGACAGCAAGUUTT against AKAP13 | inactive: 0.654 |
| GAGCUUUACUUGUCUGCGATT against TYRO3 | inactive: -0.0161 |
| UGAAGAUUGUCGAACAGGATT against GABRG2 | inactive: -0.479 |

| Sequence | median seed-adjusted z-score |
| --- | --- |
| GAAUCAGAUUUGGACCAGATT against CDH22 | inactive: -0.57 |
| GACCCAAAGCGGCAGCAAATT against KLRC2 | inactive: -0.472 |
| GGAAAGCUUUGAAGGGCAATT against PSMA2 | inactive: -0.54 |
| GGUUUGCUCUCUUACUACATT against OSBP2 | inactive: -0.568 |
| CUUUAUGUAUUUUCGCAUATT against ALDH3A2 | inactive: -0.0751 |
| CCAGUGCUCCCGAAACUGATT against KRTAP5-5 | active: -1.07 |
| GCUCUGUCGAGGUACCAGATT against RAB7B | inactive: 0 |
| GAGCGAACAUUGAGACGUATT against ARID4A | inactive: 0.601 |
| CGCAUAUCCCGAUAUAACATT against UBE4B | inactive: -0.0364 |
| GCGGAAAUGUGAGCGUGUATT against TRIM28 | inactive: -0.718 |
| GAAGGGACAUUACUACUAUTT against TDRKH | inactive: -0.434 |
| CCAUUGAACACUAACCCAATT against ADD1 | inactive: -0.0129 |
| UGGUGACUCUCAUUUCGCATT against BCAP31 | inactive: 0.277 |
| GCAACCAUGUGAAUCACUATT against MIZF | inactive: 0.365 |
| CCCUGAAGAUAUUUAGAGATT against PDIA3 | inactive: -0.619 |
| ACAUCAUGCUGGACGUGCATT against ACCN3 | inactive: -0.114 |
| AGUUGUAACCUGAUGGUAATT against HSPA1B | inactive: 0.302 |
| GGCUGAAUUUGGUACACUATT against MAN1A2 | inactive: 0.554 |
| GGAAAAUUCCUCUACAUCUTT against NPAS1 | inactive: -0.386 |
| UCCGCUACCUGGGUGUUGATT against DUSP26 | inactive: 0.204 |
| GUACCUGCAGAAUAAUAAATT against S100A8 | inactive: -0.337 |
| GGGACGAUGUUAAGUUUCATT against PEX5L | inactive: 0.0982 |

| Sequence | median seed-adjusted z-score |
| --- | --- |
| GAAUGAAGAUGAACGGGAATT against EIF2S1 | inactive: -0.175 |
| GAACUGCUACCCGAAAUUATT against NASP | inactive: 0.133 |
| CAUCCUGGAUAGCUCAAAATT against CTBS | inactive: 0.0442 |
| GGAACAAGAUGGAAGAGAATT against DFFB | inactive: 0.242 |
| CUAUCAUAGCUGAUCGGUUTT against SLC8A1 | inactive: 0.221 |
| GGUUUAUCCUGGGCUCUUUTT against SLCO3A1 | inactive: -0.0387 |
| GCUUUGUGCUGGUCUACGATT against RERG | inactive: 0.59 |
| CCCUUACUUUGCUAAGCAATT against GNPNAT1 | inactive: 0.313 |
| AGAUGAAAGAGGACGCGAATT against TNNC2 | inactive: -0.773 |
| GAACGGCUGUAGUAGAUCUTT against RARS2 | inactive: -0.0247 |
| GCUGCUGUCCAAUCCCAGATT against GRN | inactive: -0.767 |
| GCUCCCAGAUUGAUAUCUATT against EXOSC4 | inactive: 0.443 |
| GAGUGGAGCGUACAUCCUATT against ZXDA | inactive: -0.0748 |
| CCUUAUGUAUAAUGAAACATT against RHCE | inactive: 0.488 |
| GCAGUAGACAAGUCUGACATT against SLC1A1 | inactive: 0.0967 |
| ACAUCCAGCCUAAACUCUATT against STON1-GTF2A1L | inactive: 0.294 |
| CACUCCACUUUUUCAGACATT against BATF2 | inactive: 0.714 |
| UCAGUUUCCUAAUCUGUAATT against QPRT | inactive: 0.15 |
| CCAUUGACCUCUCCGCCUATT against CEBPE | inactive: -0.259 |
| GGUACAUCAUGAUAGAACATT against ABCD2 | inactive: -0.102 |
